Data: doi:10.1101/276204 (bioRxiv, 2018)

Target: T1, Bub1 kinase domain (Bub1^KinD, residues 725-1085) (human) (UniProt O43683)
T1 sequence: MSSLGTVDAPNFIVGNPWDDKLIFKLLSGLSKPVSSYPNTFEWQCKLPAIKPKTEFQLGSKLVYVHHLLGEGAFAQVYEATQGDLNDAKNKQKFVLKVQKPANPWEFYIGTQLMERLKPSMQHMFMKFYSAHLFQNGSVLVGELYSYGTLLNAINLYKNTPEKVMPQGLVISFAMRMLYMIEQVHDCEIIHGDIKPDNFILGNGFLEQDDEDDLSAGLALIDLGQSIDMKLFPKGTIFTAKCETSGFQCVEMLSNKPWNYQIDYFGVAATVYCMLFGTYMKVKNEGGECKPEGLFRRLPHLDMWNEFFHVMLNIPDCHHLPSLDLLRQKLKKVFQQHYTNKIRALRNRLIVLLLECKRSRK
Assay: SEC

binding | Substance
binds | mCherry-CENP-F^2866-2990 (Homo sapiens) (domain or fragment)
binds | mCherry-CENP-F^2922-2990 (Homo sapiens) (domain or fragment)

No constants are given. Whether binding was seen depends on the method and setting. Binding calls can cover weak binding; strength is not graded here.
